Here are results for three substances from PMC6238537.

Sequences of proteins named here, by UniProt entry; tags and fusion partners are left off. A change or cut given only in a name is not applied to a line headed by its entry. Residues count along the entry.
UniProt P11047, residues 34-1609: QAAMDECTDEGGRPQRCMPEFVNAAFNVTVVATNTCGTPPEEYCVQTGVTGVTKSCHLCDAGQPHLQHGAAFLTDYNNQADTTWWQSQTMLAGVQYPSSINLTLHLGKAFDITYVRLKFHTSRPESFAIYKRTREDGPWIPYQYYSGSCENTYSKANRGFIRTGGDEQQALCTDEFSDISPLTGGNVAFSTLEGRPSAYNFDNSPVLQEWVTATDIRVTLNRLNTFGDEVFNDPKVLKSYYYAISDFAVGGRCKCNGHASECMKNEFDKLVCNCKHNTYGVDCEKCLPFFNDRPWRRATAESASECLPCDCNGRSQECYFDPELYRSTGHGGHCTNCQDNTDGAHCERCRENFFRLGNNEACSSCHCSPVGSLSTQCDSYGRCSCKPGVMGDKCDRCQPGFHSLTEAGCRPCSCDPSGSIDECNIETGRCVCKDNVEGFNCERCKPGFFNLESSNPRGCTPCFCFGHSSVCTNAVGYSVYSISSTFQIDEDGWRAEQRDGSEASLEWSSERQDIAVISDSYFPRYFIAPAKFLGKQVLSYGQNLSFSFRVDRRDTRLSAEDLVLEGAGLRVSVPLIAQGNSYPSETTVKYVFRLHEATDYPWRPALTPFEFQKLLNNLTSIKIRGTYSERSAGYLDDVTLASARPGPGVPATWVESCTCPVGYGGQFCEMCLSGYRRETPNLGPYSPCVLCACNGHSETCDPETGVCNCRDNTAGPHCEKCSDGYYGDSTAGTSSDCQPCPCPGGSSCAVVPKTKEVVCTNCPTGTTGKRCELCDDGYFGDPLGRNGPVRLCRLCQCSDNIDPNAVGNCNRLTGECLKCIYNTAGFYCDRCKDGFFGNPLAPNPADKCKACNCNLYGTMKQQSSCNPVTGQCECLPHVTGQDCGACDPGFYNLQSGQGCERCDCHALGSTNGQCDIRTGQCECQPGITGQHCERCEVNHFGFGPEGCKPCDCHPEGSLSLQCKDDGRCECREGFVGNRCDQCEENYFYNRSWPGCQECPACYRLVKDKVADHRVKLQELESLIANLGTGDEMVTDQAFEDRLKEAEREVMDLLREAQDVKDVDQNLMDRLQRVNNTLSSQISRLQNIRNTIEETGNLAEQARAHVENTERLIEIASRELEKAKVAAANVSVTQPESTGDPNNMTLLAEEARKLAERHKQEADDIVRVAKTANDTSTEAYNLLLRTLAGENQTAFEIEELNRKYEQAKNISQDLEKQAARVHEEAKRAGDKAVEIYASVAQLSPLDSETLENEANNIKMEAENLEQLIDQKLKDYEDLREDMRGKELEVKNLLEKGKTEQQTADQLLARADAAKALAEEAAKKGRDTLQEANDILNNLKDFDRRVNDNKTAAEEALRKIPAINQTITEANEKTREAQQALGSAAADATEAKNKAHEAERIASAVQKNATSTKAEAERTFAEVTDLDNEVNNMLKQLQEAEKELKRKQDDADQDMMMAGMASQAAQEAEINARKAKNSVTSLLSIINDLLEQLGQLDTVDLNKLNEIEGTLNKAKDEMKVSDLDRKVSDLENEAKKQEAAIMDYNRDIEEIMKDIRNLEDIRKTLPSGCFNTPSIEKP
UniProt P25391, residues 18-3075: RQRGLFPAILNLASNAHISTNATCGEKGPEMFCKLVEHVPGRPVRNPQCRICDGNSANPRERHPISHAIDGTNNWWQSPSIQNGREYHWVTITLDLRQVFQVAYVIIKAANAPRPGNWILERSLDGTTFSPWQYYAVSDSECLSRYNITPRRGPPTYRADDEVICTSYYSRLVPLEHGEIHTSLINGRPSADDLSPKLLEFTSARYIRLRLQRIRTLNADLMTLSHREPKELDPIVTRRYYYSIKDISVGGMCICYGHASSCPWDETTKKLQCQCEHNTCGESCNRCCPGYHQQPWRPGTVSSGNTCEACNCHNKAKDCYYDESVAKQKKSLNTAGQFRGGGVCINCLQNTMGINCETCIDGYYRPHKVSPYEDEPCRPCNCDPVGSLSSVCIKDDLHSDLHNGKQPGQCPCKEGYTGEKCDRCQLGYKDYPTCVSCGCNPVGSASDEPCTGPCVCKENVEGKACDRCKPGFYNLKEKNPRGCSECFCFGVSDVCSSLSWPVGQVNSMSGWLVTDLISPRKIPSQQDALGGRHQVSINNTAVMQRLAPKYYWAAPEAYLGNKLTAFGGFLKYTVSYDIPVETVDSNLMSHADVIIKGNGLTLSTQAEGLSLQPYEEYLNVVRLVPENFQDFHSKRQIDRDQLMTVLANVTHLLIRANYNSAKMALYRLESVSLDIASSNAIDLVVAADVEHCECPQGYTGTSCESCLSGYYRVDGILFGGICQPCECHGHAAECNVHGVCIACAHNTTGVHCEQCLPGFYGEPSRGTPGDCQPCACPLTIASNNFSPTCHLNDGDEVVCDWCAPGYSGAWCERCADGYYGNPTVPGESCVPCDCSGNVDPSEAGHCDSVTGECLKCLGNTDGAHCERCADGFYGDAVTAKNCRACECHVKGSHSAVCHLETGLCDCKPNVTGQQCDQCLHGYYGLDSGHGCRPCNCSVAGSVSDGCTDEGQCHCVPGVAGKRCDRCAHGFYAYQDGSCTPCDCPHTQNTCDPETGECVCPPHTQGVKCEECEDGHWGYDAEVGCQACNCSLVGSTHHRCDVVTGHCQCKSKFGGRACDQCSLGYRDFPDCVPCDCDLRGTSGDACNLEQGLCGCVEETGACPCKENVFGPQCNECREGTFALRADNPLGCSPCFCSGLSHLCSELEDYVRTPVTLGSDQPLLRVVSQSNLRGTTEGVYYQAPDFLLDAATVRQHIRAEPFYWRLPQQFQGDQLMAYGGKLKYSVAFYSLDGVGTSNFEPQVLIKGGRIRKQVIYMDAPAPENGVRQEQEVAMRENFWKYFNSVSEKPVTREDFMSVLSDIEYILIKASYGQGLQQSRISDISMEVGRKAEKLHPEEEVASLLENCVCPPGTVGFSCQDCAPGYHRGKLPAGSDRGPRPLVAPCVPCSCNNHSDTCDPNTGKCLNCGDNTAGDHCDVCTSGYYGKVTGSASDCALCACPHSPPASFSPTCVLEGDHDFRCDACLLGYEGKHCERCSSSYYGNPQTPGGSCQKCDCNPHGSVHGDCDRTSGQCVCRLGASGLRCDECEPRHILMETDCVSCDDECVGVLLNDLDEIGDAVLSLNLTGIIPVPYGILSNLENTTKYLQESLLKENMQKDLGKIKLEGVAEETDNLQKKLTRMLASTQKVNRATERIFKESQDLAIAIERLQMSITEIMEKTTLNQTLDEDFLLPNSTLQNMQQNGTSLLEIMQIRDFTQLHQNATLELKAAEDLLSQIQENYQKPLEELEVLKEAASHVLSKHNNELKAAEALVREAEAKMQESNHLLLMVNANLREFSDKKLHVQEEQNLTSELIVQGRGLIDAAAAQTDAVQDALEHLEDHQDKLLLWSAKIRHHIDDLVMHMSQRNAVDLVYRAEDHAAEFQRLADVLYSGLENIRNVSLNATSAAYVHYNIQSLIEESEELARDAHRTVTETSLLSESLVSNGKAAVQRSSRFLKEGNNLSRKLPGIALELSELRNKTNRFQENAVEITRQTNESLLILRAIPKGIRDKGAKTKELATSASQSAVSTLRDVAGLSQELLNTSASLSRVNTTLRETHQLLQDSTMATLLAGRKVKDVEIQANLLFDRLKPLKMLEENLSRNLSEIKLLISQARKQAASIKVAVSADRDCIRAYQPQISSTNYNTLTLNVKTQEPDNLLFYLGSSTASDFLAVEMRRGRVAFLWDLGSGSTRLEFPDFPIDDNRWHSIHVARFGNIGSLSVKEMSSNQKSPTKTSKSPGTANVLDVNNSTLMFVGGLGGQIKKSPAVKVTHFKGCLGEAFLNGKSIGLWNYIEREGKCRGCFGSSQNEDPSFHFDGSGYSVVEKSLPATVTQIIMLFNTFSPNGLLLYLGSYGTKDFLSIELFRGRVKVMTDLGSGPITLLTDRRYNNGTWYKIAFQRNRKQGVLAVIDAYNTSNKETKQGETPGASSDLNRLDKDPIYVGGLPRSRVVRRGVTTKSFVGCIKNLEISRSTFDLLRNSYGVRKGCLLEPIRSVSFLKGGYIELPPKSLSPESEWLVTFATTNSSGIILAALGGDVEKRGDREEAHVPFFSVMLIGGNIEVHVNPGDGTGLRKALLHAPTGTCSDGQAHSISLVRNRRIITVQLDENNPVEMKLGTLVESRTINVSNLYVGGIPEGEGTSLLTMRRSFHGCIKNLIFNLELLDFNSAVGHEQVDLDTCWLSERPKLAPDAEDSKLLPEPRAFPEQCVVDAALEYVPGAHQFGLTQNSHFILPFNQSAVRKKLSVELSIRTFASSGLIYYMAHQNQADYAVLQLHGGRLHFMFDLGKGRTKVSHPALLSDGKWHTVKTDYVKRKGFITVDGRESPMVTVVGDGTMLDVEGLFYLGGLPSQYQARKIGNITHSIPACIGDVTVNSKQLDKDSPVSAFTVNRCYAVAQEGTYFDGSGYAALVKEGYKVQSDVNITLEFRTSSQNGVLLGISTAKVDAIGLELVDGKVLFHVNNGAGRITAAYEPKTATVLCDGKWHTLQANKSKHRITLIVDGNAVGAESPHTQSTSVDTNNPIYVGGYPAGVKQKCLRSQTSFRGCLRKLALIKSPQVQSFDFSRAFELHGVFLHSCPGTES
UniProt P07942: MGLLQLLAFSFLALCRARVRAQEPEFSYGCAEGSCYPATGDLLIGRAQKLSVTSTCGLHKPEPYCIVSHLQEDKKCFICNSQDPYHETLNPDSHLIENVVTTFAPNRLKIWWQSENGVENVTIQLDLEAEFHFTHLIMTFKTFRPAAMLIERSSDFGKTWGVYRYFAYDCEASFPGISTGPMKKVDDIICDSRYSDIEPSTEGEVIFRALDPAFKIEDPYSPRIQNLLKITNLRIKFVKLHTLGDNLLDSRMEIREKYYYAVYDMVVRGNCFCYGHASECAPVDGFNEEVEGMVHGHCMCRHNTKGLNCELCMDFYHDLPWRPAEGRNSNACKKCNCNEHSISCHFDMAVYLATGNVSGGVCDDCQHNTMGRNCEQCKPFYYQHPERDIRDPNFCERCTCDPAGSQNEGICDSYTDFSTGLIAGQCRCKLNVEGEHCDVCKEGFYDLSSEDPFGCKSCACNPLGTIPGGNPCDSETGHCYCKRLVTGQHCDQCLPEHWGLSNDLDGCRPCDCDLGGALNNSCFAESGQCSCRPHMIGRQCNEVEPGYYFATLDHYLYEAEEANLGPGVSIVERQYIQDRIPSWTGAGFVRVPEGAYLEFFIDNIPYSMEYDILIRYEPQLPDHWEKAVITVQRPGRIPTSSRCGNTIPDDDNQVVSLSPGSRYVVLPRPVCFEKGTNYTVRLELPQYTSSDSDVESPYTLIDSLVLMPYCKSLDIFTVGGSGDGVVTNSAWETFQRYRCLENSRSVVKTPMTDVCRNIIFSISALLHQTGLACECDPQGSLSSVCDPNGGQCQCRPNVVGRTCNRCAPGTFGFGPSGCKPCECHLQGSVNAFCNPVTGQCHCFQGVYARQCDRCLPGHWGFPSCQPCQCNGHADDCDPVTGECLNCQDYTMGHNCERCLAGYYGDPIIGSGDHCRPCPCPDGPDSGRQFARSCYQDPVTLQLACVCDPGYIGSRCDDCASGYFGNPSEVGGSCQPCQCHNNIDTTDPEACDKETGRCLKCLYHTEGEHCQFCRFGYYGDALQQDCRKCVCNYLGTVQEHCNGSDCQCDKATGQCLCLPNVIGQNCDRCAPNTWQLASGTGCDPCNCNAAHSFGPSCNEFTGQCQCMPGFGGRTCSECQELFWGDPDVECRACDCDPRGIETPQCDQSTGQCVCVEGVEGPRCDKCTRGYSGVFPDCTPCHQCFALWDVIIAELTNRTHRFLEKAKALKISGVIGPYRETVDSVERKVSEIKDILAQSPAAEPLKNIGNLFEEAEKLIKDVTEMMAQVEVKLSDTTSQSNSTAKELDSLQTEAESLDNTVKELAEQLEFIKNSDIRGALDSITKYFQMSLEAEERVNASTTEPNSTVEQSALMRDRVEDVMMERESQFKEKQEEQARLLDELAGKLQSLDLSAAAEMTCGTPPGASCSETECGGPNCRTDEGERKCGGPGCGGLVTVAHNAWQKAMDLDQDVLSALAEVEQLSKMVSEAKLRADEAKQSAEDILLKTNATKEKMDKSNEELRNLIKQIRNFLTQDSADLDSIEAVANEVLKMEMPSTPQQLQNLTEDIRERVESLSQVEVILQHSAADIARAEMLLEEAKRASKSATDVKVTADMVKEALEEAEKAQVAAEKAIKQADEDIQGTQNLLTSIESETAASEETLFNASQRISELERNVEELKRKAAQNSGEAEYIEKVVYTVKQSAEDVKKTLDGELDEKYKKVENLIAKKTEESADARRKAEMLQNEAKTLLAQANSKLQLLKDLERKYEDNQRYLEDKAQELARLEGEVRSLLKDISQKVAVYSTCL

These are yes or no findings as the source states them, for the method shown. For some of these results: In cells and extracts the contact can be indirect. Some entries that bind do so weakly or less than the wild type.

Test [1] has as its target FLAG-tagged human laminin γ1 chain (human) (UniProt P11047). The test is described as follows: co-IP; conditioned media of FreeStyle 293 cells expressing the three chains passed over ANTI-FLAG M2 Affinity Gel (FLAG on γ1), eluted with FLAG peptide; reducing 4% SDS-PAGE and Western blot with mAbs against α1, α5, β1 and γ1. In general terms: In western blotting, separated proteins are transferred to a membrane and probed.

For test [2] the target is unchanged. The test is described as follows: non-reducing SDS-PAGE with immunoblot; conditioned media of human 293 cells transiently expressing the laminin chains, recovered 3 d after transfection; 4% SDS-PAGE under nonreducing conditions, blot with anti-laminin-γ1 antibody.
For test [3], the target named is recombinant human laminin-111 (human) (UniProt P25391+P07942+P11047). The test is described as follows: ELISA; solid-phase binding assay: 96-well plates coated with laminins at 5 nM overnight at 4°C, blocked with 3% BSA; 30 nM integrins for 3 h at room temperature with 1 mM Mn2+; bound integrins detected by biotinylated anti-Velcro pAb and HRP-streptavidin (absorbance at 490 nm); both purified. (An ELISA detects its analyte on a solid surface through an enzyme-linked reagent.)

Consider “human laminin α1 chain (from UniProt P25391 18-3075)”, for which the binding entry in test [1] and in test [2] was “binds” each time. In the case of “recombinant integrin αvβ3 (from UniProt P06756 31-992; P05106 27-718) (receptor)”, the binding result in test [3] is recorded as “binds weakly”. Turning to “recombinant integrin αvβ5 (from UniProt P06756 31-992; P18084 24-719) (receptor)”, the binding result in test [3] is “binds weakly”.
